Literature values as cited in patent US20060074046A1, “Oral administration of decitabine salt” (priority 2004, published 2006).
At least one structure is not confirmed: it was looked up by name or label, or the drawing left a doubt.

Conditions: cited from earlier work

[O-][Cl+3]([O-])([O-])O [Perchloric acid]
pKa1: −10
